No constants are given. Whether binding was seen depends on the method and setting. In cells and extracts the contact can be indirect. Some entries that bind do so weakly or less than the wild type.
Assays:
His‐tagged IκBα [1] = molecular target: His‐tagged IκBα (UniProt P25963); test: pull-down; His-IκBα from transfected 293T cells held on Ni-NTA beads, washed with 20 mM imidazole; lysates of 293T cells expressing Flag circPCSK6-167aa or Myc-RBBP6 incubated 2 h; eluted with 250 mM imidazole; western blot; only the target purified
His‐tagged IκBα [2] = molecular target: His‐tagged IκBα (UniProt P25963); test: co-IP; 293T cells transfected with tagged vectors (His-IκBα or its lysine mutants, Myc-RBBP6, Flag circPCSK6-167aa); antibody (e.g. anti-Flag or anti-Myc) overnight at 4 °C, protein A/G magnetic beads, western blot (Figure 6F, I, L-O)
IκBα‐K22R mutant = IκBα‐K22R mutant (UniProt P25963); test: as above
[3] = molecular target: IκBα in ICC cells (human (endogenous in ICC cell lines)) (UniProt P25963); test: co-IP; ICC cell lysate, pre-cleared, antibody overnight at 4 °C, protein A/G magnetic beads, three washes with PBS, western blot (Figure 5F); which protein was precipitated is not told

Sequences of proteins named here, by UniProt entry; tags and fusion partners are left off. A change or cut given only in a name is not applied to a line headed by its entry.
UniProt P25963: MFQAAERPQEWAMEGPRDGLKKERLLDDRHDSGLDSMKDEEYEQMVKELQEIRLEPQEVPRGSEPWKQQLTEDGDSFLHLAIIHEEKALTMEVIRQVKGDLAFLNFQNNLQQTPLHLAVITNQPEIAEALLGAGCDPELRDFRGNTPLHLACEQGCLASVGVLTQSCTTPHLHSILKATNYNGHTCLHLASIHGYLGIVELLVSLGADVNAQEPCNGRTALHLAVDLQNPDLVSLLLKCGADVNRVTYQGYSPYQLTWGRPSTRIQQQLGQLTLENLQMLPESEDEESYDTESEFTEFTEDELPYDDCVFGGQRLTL
UniProt Q7Z6E9: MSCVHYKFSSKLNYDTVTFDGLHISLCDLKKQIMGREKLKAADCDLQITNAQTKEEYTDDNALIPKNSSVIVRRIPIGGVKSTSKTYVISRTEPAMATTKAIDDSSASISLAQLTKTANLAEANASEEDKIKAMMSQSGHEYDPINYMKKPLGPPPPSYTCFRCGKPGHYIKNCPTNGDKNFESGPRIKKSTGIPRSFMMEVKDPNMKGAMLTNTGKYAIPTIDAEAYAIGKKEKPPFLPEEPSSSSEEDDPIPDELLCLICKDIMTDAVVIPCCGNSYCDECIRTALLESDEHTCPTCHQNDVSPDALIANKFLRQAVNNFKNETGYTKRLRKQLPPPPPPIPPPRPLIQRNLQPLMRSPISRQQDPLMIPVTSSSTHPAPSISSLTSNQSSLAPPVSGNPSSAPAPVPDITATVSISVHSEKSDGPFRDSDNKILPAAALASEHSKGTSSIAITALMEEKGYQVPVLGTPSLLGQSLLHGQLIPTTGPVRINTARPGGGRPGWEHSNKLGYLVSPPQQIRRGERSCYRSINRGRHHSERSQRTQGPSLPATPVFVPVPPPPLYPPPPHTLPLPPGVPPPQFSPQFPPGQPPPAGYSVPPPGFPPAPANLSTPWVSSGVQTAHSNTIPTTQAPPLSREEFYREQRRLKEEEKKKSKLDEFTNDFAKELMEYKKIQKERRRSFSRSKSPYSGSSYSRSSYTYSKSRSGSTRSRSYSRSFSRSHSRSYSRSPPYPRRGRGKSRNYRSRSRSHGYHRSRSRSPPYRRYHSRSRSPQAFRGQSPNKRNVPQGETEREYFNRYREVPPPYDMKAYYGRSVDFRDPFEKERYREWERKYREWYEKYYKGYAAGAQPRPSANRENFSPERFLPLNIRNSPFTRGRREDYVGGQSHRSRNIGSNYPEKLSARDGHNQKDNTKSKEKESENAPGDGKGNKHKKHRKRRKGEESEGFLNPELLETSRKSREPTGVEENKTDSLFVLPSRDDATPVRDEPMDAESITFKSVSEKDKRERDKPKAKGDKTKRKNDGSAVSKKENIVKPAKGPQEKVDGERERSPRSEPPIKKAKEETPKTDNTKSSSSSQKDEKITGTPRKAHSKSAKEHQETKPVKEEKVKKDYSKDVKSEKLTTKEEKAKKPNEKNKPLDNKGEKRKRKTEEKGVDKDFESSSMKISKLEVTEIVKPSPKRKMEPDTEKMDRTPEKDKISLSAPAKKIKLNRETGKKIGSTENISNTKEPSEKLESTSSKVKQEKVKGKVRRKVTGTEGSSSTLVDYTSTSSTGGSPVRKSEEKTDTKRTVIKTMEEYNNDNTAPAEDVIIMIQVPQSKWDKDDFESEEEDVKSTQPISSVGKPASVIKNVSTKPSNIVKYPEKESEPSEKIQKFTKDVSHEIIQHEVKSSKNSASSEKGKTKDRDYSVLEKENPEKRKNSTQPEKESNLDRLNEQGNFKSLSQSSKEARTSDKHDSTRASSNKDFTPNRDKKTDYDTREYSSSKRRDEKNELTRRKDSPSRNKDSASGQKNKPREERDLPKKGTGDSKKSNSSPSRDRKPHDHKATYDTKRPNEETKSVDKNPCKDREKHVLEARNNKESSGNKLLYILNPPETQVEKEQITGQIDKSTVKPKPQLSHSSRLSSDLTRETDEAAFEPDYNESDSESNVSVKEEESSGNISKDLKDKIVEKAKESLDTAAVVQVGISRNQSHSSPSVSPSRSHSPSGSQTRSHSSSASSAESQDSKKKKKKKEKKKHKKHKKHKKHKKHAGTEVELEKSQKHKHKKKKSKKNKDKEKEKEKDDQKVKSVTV
UniProt O95071: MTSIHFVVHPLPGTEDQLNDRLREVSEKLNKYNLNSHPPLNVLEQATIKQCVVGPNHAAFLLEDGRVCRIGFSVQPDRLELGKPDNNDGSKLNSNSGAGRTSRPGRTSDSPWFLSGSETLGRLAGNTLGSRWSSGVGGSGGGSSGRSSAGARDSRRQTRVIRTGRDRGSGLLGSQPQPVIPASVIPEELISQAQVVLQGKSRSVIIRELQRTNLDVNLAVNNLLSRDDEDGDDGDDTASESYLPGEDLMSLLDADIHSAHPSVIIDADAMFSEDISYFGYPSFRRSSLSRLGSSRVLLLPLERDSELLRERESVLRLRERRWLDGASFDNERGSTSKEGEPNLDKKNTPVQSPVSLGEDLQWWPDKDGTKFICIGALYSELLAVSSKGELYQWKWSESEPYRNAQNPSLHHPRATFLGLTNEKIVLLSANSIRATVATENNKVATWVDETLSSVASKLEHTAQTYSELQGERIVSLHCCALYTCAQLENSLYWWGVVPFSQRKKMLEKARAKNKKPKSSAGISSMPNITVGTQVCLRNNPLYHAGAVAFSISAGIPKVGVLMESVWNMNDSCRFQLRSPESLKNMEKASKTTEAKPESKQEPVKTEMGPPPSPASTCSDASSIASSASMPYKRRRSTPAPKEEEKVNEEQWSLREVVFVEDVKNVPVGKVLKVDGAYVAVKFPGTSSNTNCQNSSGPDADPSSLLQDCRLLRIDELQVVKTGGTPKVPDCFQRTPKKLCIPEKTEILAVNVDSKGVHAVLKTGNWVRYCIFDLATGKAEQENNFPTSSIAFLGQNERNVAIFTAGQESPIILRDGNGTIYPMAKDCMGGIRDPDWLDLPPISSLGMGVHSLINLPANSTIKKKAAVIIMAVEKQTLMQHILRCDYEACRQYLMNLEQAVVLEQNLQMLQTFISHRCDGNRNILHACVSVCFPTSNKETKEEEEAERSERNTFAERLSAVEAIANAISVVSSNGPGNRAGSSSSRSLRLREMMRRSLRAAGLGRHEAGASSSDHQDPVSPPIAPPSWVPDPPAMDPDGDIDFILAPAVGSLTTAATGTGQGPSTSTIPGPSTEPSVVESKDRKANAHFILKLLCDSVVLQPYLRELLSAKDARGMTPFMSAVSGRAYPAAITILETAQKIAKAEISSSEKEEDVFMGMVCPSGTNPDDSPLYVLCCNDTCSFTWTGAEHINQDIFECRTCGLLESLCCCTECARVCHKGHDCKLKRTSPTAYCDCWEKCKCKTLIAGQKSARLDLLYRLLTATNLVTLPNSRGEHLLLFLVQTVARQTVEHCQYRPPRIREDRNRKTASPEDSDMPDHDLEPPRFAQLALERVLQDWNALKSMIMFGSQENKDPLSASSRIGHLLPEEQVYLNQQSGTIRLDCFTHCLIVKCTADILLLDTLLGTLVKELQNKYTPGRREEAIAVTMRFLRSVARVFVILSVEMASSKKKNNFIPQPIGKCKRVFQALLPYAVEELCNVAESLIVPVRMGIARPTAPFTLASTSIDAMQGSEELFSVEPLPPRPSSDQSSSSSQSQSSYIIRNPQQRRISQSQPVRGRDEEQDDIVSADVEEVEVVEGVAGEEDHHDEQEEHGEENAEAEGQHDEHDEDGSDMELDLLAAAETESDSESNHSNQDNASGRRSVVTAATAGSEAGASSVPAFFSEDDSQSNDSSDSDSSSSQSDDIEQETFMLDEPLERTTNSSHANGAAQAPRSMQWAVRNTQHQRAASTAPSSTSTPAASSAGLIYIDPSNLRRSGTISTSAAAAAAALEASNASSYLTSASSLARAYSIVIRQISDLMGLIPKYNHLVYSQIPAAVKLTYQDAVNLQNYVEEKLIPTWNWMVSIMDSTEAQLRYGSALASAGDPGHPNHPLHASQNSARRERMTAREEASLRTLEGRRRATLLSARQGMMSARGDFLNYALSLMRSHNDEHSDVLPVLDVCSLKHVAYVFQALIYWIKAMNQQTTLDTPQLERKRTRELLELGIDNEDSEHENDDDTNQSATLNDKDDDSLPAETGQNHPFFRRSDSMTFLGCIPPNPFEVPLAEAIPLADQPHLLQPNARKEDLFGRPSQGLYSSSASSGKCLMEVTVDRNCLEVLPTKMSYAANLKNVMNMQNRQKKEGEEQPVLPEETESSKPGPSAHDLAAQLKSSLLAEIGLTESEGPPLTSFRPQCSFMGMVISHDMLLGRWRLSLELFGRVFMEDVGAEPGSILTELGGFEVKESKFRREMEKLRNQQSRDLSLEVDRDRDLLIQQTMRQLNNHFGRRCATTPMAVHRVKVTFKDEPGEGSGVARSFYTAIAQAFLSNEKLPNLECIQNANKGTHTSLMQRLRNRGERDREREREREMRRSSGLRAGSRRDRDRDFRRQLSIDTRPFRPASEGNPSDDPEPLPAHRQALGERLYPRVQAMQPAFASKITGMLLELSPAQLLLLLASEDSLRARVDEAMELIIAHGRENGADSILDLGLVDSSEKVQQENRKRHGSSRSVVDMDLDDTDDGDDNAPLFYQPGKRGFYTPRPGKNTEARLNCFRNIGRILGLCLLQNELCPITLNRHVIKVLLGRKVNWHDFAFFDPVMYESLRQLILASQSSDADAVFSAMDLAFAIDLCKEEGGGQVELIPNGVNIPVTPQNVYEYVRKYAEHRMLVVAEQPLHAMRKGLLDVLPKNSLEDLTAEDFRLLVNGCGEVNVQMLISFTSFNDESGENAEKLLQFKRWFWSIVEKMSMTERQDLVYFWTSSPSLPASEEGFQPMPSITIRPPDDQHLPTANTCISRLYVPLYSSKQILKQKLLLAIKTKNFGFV

binding (His‐tagged IκBα [1])	binding (His‐tagged IκBα [2])	binding (IκBα‐K22R mutant)	binding [3]	Substance
binds	binds	binds	–	Myc‐tagged RBBP6 (from UniProt Q7Z6E9 1-1792)
–	–	–	binds	RBBP6 (E3 ligase) in ICC cells (from UniProt Q7Z6E9 1-1792)
–	–	–	binds weakly	UBR5 (E3 ligase) in ICC cells (from UniProt O95071 1-2799)
